Results are given in words; binding and its absence hold for the method and conditions named. A result given as binding can be weak or reduced; the word gives no strength.

Assay [1] addresses TrwK/VirB4 (plasmid R388). Briefly: cryo-EM structure.
Assay [2] deals with TrwM/VirB3 (plasmid R388). Briefly: cryo-EM structure.

B1: TrwE/VirB10 (protein, UniProt O50337 1-395)
chain: MFGRKKGDVIDAGAELERAEQERIEGEYGASELASERRPHTPGARTLLMVLLCVIAVVLVTLSYKAYKVRGVVEDDDAQPQQVVRQVIPGYTPRPIRPEPENVPEPPQPTTSVPAIQPAPVTQPVRPQPTGPREKTPYELARERMLRSGLTAGSGGGEDLPRPQGGDVPAGGLMGGGGGGGELAEKLQPMRLSGSSAGRLGNRDMLITQGTQLDCVLETRLVTTQPGMTTCHLTRDVYSTSGRVVLLDRGSKVVGFYQGGLRQGQARIFVQWSRIETPSGVVINLDSPGTGPLGEAGLGGWIDRHFWERFGGAIMISLIGDLGDWASRQGSRQGNNSIQFSNTANGVESAAAEALRNSINIPPTLYKNQGERVNILVARDLDFSDVYSLESIPTK
Turning to B1, the binding entry in assay [1] and in assay [2] was “binds” throughout.

B2: TrwG/VirB8 (natural protein, plasmid R388)
chain: MSKKQPKPVKAEQLKSYYEESRGLERDLIGEFVKSRKTAWRVATASGLFGLLGMVCGIVGFSQPAPAPLVLRVDNATGAVDVVTTLREHESSYGEVVDTYWLNQYVLNREAYDYNTIQMNYDTTALLSAPAVQQDYYKLFDGSNARDRVLGNKARITVRVRSIQPNGRGQATVRFTTQQHNSNGTVERPQHQIATIGYTYIGAPMRSSDRLLNPLGFQVTSYRADPEILNN
Turning to B2, the binding result in assay [1] is listed as “binds”.

Values taken from paper doi:10.1101/2024.02.08.579498 (bioRxiv, 2024).
